According to article PMC4527730, “A Pan-GTPase Inhibitor as a Molecular Probe” (PLoS ONE, 2015):
Some compounds share one wording; it may come from a single statement.

System: GTPases (H-Ras, H-Ras G12V, Cdc42, Cdc42 Q61L, Rac1, Rac1 Q61L, RhoA, Rab7)
Assay: Multiplex dose-response assay, statements across the GTPase panel
Settings: BODIPY-FL GTP 25 nM, 100 nM, 250 nM

| SMILES | change of EC50 values with the concentration of BODIPY-FL GTP |
| --- | --- |
| CC1(C)Cc2c(sc(NC(=S)NC(=O)c3ccccc3)c2C(=O)O)CO1 [Compound 1] | increased almost linearly |
| CC1(C)Cc2c(sc(NC(=S)NC(=O)c3ccc(F)cc3)c2C(=O)O)CO1 [Compound 9] | increased almost linearly |
| O=C(NC(=S)Nc1sc2c(c1C(=O)O)CCOC2)c1ccccc1 [Compound 3] | increased almost linearly |
